Measurements published in the supplement of paper PMC10849652.
The other results are listed elsewhere or left out.

Sequences of proteins named here, by UniProt entry; tags and fusion partners are left off. A change or cut given only in a name is not applied to a line headed by its entry.
UniProt Q6GMV2: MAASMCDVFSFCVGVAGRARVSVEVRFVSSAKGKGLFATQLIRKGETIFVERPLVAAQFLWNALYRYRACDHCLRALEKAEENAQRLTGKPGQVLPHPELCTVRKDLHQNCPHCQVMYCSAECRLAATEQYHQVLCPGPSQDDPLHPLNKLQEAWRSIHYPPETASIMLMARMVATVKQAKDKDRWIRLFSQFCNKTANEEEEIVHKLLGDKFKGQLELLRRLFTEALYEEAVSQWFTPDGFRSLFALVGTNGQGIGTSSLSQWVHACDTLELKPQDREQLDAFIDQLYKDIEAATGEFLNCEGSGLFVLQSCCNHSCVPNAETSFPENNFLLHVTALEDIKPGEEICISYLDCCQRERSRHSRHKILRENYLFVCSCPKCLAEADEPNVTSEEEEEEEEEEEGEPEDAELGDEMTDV
UniProt P35712: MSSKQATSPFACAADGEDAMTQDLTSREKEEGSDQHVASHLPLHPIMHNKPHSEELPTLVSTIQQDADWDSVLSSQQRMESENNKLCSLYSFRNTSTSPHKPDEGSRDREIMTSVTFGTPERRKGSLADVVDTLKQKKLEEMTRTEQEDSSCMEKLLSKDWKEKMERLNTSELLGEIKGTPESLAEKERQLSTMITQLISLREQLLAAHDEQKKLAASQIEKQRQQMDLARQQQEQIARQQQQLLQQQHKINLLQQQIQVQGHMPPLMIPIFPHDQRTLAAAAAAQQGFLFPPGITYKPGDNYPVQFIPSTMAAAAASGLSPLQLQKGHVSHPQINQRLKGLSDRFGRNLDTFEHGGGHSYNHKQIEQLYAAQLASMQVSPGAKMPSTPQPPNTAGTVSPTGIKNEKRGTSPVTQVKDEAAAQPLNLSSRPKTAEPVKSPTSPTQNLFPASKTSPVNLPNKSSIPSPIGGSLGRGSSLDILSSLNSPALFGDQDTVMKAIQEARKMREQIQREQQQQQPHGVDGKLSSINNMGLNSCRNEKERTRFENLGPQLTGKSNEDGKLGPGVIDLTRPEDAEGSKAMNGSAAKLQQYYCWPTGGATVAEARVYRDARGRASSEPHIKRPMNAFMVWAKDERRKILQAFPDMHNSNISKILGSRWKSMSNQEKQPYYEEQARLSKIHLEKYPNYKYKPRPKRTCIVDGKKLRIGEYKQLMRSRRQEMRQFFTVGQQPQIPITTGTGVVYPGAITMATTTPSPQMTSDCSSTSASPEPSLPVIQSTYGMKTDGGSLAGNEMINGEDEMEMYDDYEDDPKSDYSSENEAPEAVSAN
UniProt Q16637, whole entry, looked up: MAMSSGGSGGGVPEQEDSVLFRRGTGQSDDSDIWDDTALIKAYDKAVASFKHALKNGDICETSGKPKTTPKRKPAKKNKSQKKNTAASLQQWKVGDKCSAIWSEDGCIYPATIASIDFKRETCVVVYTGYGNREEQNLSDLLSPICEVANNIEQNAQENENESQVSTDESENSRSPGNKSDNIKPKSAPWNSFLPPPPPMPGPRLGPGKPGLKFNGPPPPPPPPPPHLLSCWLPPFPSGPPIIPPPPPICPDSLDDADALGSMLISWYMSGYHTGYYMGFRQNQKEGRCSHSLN
UniProt O95721: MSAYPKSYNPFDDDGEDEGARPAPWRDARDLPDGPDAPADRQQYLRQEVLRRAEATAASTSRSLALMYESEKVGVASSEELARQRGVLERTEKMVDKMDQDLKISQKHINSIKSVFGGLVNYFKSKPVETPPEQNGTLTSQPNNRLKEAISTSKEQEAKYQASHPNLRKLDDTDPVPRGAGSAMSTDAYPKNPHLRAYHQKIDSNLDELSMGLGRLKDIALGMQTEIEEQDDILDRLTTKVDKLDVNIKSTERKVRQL
UniProt P62304, whole entry, looked up: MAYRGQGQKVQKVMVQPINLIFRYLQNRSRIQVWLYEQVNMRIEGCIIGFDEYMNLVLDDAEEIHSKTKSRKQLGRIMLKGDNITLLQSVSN
UniProt P51531, whole entry, looked up: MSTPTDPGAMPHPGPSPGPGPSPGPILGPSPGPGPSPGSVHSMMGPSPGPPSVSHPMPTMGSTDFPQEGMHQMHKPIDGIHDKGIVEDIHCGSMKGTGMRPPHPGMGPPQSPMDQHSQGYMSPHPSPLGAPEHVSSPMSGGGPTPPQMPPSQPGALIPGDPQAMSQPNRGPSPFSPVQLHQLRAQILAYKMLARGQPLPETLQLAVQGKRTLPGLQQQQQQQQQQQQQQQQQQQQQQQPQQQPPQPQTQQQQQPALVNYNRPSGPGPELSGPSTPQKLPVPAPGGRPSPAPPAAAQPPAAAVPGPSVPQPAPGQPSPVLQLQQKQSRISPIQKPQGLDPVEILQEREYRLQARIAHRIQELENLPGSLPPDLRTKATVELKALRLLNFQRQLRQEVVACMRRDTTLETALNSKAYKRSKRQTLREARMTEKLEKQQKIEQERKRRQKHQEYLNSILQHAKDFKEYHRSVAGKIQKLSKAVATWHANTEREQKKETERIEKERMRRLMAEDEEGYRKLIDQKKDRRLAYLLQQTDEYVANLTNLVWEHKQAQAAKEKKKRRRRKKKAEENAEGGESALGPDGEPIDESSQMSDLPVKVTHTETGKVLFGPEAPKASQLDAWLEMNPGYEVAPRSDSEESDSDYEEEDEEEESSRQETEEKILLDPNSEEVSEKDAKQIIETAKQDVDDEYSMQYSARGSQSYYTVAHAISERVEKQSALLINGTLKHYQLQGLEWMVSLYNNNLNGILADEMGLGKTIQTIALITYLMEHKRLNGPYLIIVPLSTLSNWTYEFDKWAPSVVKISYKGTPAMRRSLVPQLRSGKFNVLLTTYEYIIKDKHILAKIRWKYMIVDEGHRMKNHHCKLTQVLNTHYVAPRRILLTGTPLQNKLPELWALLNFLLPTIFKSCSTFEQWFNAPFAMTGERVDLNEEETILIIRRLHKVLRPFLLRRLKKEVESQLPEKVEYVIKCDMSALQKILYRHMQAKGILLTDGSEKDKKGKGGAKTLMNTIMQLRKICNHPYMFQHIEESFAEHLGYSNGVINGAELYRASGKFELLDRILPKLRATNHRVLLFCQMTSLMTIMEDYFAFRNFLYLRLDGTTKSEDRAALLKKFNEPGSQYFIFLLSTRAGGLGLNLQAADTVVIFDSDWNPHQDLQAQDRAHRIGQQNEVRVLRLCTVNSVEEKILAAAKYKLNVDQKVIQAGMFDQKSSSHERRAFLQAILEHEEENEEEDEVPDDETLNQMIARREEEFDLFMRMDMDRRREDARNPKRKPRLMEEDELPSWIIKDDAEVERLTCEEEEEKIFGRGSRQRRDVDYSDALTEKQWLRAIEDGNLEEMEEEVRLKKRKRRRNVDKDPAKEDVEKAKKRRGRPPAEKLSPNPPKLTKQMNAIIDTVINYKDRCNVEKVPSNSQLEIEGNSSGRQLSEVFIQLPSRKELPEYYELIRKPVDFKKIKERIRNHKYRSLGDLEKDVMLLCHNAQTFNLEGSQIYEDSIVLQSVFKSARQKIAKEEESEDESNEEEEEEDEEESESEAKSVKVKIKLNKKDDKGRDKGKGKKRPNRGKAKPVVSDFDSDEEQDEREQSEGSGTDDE
UniProt P09661: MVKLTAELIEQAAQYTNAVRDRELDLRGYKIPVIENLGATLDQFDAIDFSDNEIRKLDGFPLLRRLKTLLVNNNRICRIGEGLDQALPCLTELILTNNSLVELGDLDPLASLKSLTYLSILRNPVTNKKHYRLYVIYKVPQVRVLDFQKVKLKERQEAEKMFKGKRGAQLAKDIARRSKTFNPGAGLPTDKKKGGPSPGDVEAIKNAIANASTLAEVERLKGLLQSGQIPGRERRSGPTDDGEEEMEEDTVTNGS
UniProt P08047, whole entry, looked up: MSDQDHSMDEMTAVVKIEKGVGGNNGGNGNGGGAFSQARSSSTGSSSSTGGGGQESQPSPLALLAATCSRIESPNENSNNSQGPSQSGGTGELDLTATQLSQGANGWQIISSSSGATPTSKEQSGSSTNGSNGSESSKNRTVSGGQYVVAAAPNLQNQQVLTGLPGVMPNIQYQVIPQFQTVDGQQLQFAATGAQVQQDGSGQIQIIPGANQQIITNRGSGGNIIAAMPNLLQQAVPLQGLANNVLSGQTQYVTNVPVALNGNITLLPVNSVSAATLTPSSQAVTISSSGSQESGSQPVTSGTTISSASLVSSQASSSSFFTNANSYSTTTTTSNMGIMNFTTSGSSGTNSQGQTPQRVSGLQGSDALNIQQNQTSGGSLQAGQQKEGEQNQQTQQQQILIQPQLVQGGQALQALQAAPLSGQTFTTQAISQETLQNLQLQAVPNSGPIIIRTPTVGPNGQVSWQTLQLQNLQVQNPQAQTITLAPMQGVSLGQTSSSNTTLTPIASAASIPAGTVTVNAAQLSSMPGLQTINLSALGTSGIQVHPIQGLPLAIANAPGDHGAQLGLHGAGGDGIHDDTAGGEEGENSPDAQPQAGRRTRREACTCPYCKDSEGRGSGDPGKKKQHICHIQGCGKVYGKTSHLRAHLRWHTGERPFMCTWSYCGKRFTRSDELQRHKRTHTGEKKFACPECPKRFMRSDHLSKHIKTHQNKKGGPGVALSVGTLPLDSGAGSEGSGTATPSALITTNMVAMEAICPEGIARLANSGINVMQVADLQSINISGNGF
UniProt O00161: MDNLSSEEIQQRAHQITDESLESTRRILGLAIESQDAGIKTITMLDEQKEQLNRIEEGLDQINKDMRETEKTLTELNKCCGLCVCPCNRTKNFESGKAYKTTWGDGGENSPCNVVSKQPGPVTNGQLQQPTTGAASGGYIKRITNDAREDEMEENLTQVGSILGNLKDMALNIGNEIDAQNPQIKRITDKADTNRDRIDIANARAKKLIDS
UniProt Q96EX1: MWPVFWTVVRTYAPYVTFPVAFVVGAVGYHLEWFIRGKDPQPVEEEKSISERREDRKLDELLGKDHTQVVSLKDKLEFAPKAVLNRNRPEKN
UniProt Q9NRG4: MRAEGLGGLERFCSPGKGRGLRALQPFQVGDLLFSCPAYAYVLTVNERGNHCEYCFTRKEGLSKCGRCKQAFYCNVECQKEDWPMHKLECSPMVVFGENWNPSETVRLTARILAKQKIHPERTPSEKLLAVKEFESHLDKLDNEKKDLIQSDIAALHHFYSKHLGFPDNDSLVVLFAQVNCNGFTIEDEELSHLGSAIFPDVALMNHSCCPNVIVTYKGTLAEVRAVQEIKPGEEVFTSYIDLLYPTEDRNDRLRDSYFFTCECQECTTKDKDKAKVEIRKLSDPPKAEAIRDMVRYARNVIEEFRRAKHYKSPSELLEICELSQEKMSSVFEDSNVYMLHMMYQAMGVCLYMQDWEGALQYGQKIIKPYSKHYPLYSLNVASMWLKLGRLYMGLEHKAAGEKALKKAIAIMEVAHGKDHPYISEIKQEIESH
UniProt O60641: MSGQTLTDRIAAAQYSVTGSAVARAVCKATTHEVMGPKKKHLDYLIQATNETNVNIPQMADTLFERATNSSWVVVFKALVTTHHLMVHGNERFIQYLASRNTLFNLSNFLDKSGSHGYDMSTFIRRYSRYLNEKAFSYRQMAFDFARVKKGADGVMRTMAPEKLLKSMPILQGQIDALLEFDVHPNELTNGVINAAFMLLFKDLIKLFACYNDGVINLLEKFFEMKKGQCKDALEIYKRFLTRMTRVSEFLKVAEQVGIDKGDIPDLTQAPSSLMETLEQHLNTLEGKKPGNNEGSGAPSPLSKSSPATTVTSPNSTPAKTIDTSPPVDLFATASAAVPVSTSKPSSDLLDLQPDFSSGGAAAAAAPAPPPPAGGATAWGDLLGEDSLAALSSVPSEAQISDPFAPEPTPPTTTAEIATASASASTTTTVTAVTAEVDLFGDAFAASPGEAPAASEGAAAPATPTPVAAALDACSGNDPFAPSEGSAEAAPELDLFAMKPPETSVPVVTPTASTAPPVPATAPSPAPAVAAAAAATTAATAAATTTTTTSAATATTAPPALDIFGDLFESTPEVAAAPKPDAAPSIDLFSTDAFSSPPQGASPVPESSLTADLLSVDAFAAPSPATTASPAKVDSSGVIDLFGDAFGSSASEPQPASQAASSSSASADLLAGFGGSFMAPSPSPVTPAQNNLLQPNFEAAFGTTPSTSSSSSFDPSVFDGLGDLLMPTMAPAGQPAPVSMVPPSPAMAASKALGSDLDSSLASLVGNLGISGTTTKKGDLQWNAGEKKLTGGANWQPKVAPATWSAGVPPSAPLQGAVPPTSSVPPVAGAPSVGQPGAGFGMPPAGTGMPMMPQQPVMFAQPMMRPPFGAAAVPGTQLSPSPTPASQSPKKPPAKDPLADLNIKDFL
UniProt Q96KF7: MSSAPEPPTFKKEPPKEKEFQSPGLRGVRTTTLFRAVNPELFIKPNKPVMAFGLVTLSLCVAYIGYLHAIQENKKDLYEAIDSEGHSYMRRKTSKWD
UniProt O75940: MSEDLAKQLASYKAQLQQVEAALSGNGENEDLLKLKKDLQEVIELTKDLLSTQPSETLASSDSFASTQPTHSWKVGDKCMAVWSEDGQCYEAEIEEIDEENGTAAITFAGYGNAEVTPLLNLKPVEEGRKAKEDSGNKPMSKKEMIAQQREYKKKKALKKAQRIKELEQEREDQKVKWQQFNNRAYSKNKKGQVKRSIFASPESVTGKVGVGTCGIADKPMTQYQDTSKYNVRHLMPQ

Tests used:
Experiment in all cases: log2 fold change, soluble protein after heating vs DMSO (PISA); higher = thermal stabilisation; K562 lysate, 10 uM; active = over 0.2 and 3.5 SD of the protein, either way, in both replicates (recomputed)
[1] = compound: C1=CC=C(C=C1)[C@H](COC2=CC3=C(C=C2)NC(=O)N3)NC(=O)C4=CC=CN(C4=O)CC5=CC(=C(C=C5)F)F
Procedure, shortened: (§1)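 The values are log-two fold changes in thermal stability compared with solvent controls and come from duplicates. They were obtained by TMTpro 16plex LC-MS/MS, with channel sums equalised, on the supernatant after 21,000xg for 90 min. That supernatant came from crude K562 extract at 1 mg/mL protein treated with 10 μM compound for 30 min, heated for 3 min across 48°C-58°C, pooled and brought to 0.5% NP-40 at 4°C.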

[2] = compound: CC1=C(SC2=C1C(=N[C@H](C3=NN=C(N32)C)CC(=O)N)C4=CC=C(C=C4)Cl)C
Procedure, shortened: as §1

[3] = compound: CC1=C2C(=CC=C1)N=C(N(C2=O)C3=CC=CC=C3C)CN4C=NC5=C(N=CN=C54)N
Procedure, shortened: as §1

[4] = compound: Cc1sc2c(c1C)C(c1ccc(Cl)cc1)=N[C@@H](CC(=O)OC(C)(C)C)c1nnc(C)n1-2
Procedure, shortened: as §1

[5] = compound: c1ccc([C@@H]2C[C@H]2NC2CCNCC2)cc1
Procedure, shortened: as §1

Measured: log2 fold change

SNRPC (UniProt Q5TAL2)
inactive: [1] 0.099 | [2] -0.014 | [3] 0.037 | [4] -0.038 | [5] -0.056

SNX12 isoform 1 (UniProt Q9UMY4)
inactive: [1] -0.011 | [2] -0.004 | [3] 0.013 | [4] -0.001 | [5] 0.023

SMYD5 (UniProt Q6GMV2)
inactive: [1] 0.028 | [2] -0.001 | [3] 0.048 | [4] -0.029 | [5] -0.104

SMG1 (UniProt Q96Q15)
inactive: [1] -0.05 | [2] -0.012 | [3] 0.018 | [4] 0.034 | [5] 0.046

SOS1 (UniProt Q07889)
inactive: [1] -0.041 | [2] -0.019 | [3] 0.047 | [4] -0.054 | [5] 0.134

SOX6 (UniProt P35712)
inactive: [1] 0.031 | [2] -0.255 | [3] -0.253 | [4] 0.144 | [5] 0.004

SNX11 (UniProt Q9Y5W9)
inactive: [1] 0.063 | [2] 0.009 | [3] 0.09 | [4] -0.09 | [5] 0.051

SMYD3 (UniProt Q9H7B4)
inactive: [1] 0.028 | [2] 0.05 | [3] 0.035 | [4] -0.001

SOGA1 isoform 2 (UniProt O94964)
inactive: [1] -0.033 | [2] 0.052 | [3] 0.054 | [4] 0.063 | [5] 0.13

SNRNP25 (UniProt Q9BV90)
inactive: [1] -0.019 | [2] -0.066

SPAG5 (UniProt Q96R06)
inactive: [1] 0.006 | [2] 0.004 | [3] 0.021 | [4] 0.013 | [5] 0.026

SMARCC1 (UniProt Q92922)
inactive: [1] -0.018 | [2] -0.029 | [3] -0.009 | [4] -0.004 | [5] -0.026

SMU1 (UniProt Q2TAY7)
inactive: [1] 0.027 | [2] -0.058 | [3] 0.005 | [4] 0.037 | [5] -0.009

SMCR8 (UniProt Q8TEV9)
inactive: [1] 0.092 | [2] -0.062 | [3] -0.016 | [4] 0.026 | [5] -0.093

SMN1 (UniProt Q16637)
inactive: [1] 0.083 | [2] -0.054 | [3] 0.054 | [4] -0.012 | [5] 0.024

SOX5 (UniProt P35711)
inactive: [1] -0.092 | [2] -0.052 | [3] 0.076 | [4] -0.005 | [5] 0

SNRPC (UniProt P09234)
inactive: [1] 0.096 | [2] -0.087 | [3] -0.021 | [4] -0.001 | [5] -0.015

SNX2 isoform 2 (UniProt O60749)
inactive: [1] -0.029 | [2] 0.072 | [3] 0.145 | [4] -0.101

SNX9 (UniProt Q9Y5X1)
inactive: [1] 0.002 | [2] 0.004 | [3] 0.038 | [4] 0.027 | [5] 0.038

SP100 isoform 4 (UniProt P23497)
inactive: [1] 0.043 | [2] -0.007 | [3] -0.009 | [4] 0.007 | [5] -0.014

SON isoform 9 (UniProt P18583)
inactive: [1] -0.034 | [2] -0.084 | [3] -0.027 | [4] 0.036 | [5] -0.031

SNRNP27 (UniProt Q8WVK2)
inactive: [1] 0.015 | [2] -0.037 | [3] -0.012 | [4] -0.035 | [5] 0.053

SNAP29 (UniProt O95721)
inactive: [1] 0.101 | [2] 0.038 | [3] 0 | [4] 0.018 | [5] -0.038

SMARCB1 (UniProt Q12824)
inactive: [1] 0.045 | [2] 0.071 | [3] 0.019 | [4] 0.009 | [5] 0.054

SMCHD1 (UniProt A6NHR9)
inactive: [1] 0.006 | [2] -0.029 | [3] 0.036 | [4] 0.022 | [5] -0.056

SMG9 (UniProt Q9H0W8)
inactive: [1] 0.005 | [2] 0.03 | [3] 0.026 | [4] -0.02 | [5] -0.001

SPAG1 (UniProt Q07617)
inactive: [1] -0.046 | [2] -0.327 | [3] 0.081

SMC2 (UniProt O95347)
inactive: [1] -0.007 | [2] 0.018 | [3] 0.016 | [4] 0.003 | [5] 0.069

SPA17 (UniProt Q15506)
inactive: [1] 0.057 | [2] -0.064 | [3] -0.006 | [4] -0.132 | [5] -0.364

SNRPD3 (UniProt P62318)
inactive: [1] -0.02 | [2] -0.011 | [3] 0.022 | [4] -0.027 | [5] -0.118

SNRPE (UniProt P62304)
inactive: [1] 0.002 | [2] 0.018 | [3] 0.007 | [4] -0.044 | [5] -0.024

SMARCC2 (UniProt Q8TAQ2)
inactive: [1] -0.001 | [2] 0.019 | [3] 0.02 | [4] -0.01 | [5] 0.012

SMARCA2 (UniProt P51531)
inactive: [1] 0.079 | [2] 0 | [3] -0.041 | [4] 0.058 | [5] 0.081

Looked up one by one from the entries so far, 3 records:
SPAG1 (UniProt Q07617)
inactive: [1] -0.046 | [2] -0.327 | [3] 0.081

SNRPE (UniProt P62304)
inactive: [1] 0.002 | [2] 0.018 | [3] 0.007 | [4] -0.044 | [5] -0.024

SPA17 (UniProt Q15506)
inactive: [1] 0.057 | [2] -0.064 | [3] -0.006 | [4] -0.132 | [5] -0.364

Remaining list, next part:

SPAG7 (UniProt O75391)
inactive: [1] 0.01 | [2] -0.029 | [3] -0.021 | [4] 0.019 | [5] -0.077

SNRNP70 (UniProt P08621)
inactive: [1] 0.009 | [2] 0.045 | [3] -0.033 | [4] 0.02 | [5] -0.004

SNRNP200 (UniProt O75643)
inactive: [1] 0.01 | [2] 0.017 | [3] 0.011 | [4] 0.002 | [5] -0.001

SORBS3 (UniProt O60504)
inactive: [1] 0.047 | [2] 0.081 | [3] -0.049 | [4] 0.028 | [5] 0.022

SNX2 (UniProt O60749)
inactive: [1] 0.01 | [2] 0.002 | [3] 0.021 | [4] -0.006 | [5] 0.018

SNRPA1 (UniProt P09661)
inactive: [1] 0.045 | [2] -0.005 | [3] 0.01 | [4] -0.013 | [5] -0.002

SMARCD1 (UniProt Q96GM5)
inactive: [1] 0.018 | [2] 0.021 | [3] 0.037 | [4] -0.006 | [5] 0.006

SP1 (UniProt P08047)
inactive: [1] 0.007 | [2] 0.042 | [3] 0.001 | [4] 0.038 | [5] 0

SNAP23 (UniProt O00161)
inactive: [1] 0.059 | [2] -0.038 | [3] -0.005 | [4] 0.007 | [5] 0.066

SMIM12 (UniProt Q96EX1)
inactive: [1] -0.026 | [2] -0.006 | [3] 0.004 | [4] 0.105 | [5] 0.153

SOD1 (UniProt P00441)
inactive: [1] 0.04 | [2] -0.027 | [3] -0.061 | [4] 0.051 | [5] 0.159

SPAG9 (UniProt O60271)
inactive: [1] 0.029 | [2] -0.017 | [3] 0.011 | [4] -0.043 | [5] -0.042

SMTN isoform 6 (UniProt P53814)
inactive: [1] 0.053 | [2] -0.011 | [3] -0.01 | [4] 0.01 | [5] 0.081

SNRNP40 (UniProt Q96DI7)
inactive: [1] 0.023 | [2] -0.03 | [3] 0.012 | [4] 0 | [5] -0.002

SMG5 (UniProt Q9UPR3)
inactive: [1] -0.078 | [2] 0.041 | [3] 0.026 | [4] -0.047 | [5] -0.024

SMC6 (UniProt Q96SB8)
inactive: [1] -0.049 | [2] 0.006 | [3] 0.014 | [4] -0.036 | [5] -0.047

SMYD2 (UniProt Q9NRG4)
inactive: [1] -0.008 | [2] -0.007 | [3] -0.009 | [4] 0.015 | [5] 0.034

SNAP91 (UniProt O60641)
inactive: [1] 0.046 | [2] -0.09 | [3] -0.005 | [4] -0.052 | [5] 0.015

SMIM8 (UniProt Q96KF7)
inactive: [1] 0.061 | [2] 0.044 | [3] 0.004 | [4] 0.047 | [5] -0.157

SMNDC1 (UniProt O75940)
inactive: [1] 0.035 | [2] 0 | [3] -0.003 | [4] -0.014 | [5] -0.023

SNX17 (UniProt Q15036)
inactive: [1] 0.004 | [2] 0.016 | [3] 0.054 | [4] 0.02 | [5] 0.051
